Source: publication PMC7778261
These are yes or no findings as the source states them, for the method shown. Binding seen in cells or lysates may run through a third protein. Some binding calls cover weakened binding; strength is not graded here. For part of these data: Sequences can lack the tags named with a protein.

The chains behind the UniProt entries cited, without tags or fusion partners. Where a name states a change or a piece, a line headed by the entry shows the natural chain unless it says otherwise. A line that says so, or that is headed by a name, gives the form on record, which may keep a tag or linker.
UniProt P02340: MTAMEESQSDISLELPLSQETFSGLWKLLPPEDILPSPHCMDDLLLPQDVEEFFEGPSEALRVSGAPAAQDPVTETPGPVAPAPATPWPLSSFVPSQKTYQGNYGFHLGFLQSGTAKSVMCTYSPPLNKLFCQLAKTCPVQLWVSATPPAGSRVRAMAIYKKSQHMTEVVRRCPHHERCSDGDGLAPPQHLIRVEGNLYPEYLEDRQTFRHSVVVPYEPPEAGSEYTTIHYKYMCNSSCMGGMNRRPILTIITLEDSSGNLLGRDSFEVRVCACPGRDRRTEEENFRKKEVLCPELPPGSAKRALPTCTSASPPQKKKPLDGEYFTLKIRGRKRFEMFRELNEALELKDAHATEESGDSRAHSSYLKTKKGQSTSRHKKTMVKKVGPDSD
mouse MDM2 I438K (pcDNA3.1 plasmid) (P23804-1, form named): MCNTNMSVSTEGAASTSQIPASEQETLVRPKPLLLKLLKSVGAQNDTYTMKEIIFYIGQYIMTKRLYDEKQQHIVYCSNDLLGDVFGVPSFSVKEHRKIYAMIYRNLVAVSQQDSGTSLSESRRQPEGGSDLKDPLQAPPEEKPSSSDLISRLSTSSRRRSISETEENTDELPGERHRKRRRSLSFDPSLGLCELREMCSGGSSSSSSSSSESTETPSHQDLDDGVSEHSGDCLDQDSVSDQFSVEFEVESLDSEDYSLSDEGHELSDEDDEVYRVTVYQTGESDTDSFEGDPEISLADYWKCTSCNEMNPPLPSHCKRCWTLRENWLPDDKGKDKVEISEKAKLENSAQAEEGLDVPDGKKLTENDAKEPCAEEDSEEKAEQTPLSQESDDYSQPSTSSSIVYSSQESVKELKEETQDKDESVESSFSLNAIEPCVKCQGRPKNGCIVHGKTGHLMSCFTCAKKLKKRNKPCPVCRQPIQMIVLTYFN

Columns and labels:
[1] = molecular target: T1, Mouse FLAG-MDM4 (mouse) (UniProt O35618); experiment: co-IP; p53KO/KO; Mdm2KO/KO MEFs transfected with plasmid pairs (1:1), 10 µM MG-132 for 4 h; lysis in 150 mM NaCl, 50 mM Tris-HCl pH 8.0, 1% Triton X-100; antibody overnight at 4°C, Dynabeads Protein G; Western blot
T1 sequence: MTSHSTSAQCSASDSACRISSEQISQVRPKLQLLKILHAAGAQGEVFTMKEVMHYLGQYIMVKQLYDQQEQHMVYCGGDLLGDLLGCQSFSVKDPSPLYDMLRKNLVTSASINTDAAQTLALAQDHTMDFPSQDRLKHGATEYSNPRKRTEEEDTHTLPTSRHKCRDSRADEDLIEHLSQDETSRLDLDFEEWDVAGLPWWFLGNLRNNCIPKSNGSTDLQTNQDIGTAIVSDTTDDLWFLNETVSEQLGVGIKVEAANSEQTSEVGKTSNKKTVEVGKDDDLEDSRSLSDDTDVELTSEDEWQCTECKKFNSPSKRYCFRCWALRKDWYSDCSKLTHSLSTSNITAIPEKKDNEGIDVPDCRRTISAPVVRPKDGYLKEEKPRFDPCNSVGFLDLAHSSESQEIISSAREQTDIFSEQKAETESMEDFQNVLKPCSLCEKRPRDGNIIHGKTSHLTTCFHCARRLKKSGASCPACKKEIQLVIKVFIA

[2] = molecular target: mouse p53 (pcDNA3.1 plasmid) (mouse) (UniProt P02340); experiment: as above

Row | binding [1] | binding [2] | Substance
1 | binds |  | mouse MDM2 wild type (pcDNA3.1 plasmid) (from UniProt P23804-1 1-489)
2 | binds | binds | mouse MDM2 I438K (pcDNA3.1 plasmid) (from UniProt P23804-1 1-489)
